Experimental data reported in EP0333517A2, “Method and agent for inhibiting the binding of human polymorphonuclear leukocytes to endothelium and compositions therefor” (THE ROCKEFELLER UNIVERSITY, priority 1988, dated 1989).
At least one peptide structure holds a part that was inferred or is arguable (an end, a ring closure or a residue). Residues, ends and D or L forms follow the SMILES beside them.

System: binding of PMN to fibrinogen
Test: Binding of phorbol dibutyrate-stimulated PMN to fibrinogen-coated surfaces (adherent cells counted by phase contrast microscopy)
Assay type: cell-based, human
Conditions: 2 mg/ml of synthetic peptide; PMN stimulated with 300 ng/ml phorbol dibutyrate; 20 min at 0°C then 30 min at 37°C; Figure 1
Method: This example illustrates that the method of the invention can be used to inhibit binding of stimulated PMN to fibrinogen-coated surfaces. Figure 1 illustrates the level of inhibition of binding by incubation with monoclonal antibodies against CD11b/CD18 and with the peptide L10, and Figure 2 illustrates the dose dependence of this inhibition.
Details of the experiments are as follows. Purified human PMN were stimulated for 15 min. with 300 ng/ml of phorbol dibutyrate. This stimulation is necessary to enable PMN to bind, and mimics the stimulation of PMN at sites of inflammation. Culture wells were coated with fibrinogen or human serum albumin by incubating 1 mg/ml of these proteins with the culture surfaces for 1 hr. at 20°C. The PMN were then washed and added to culture wells coated with fibrinogen in the presence of 10µg/ml of various monoclonal antibodies or 2 mg/ml of synthetic peptides. PMN were allowed to settle onto the surface for 20 min. at 0°C, then were warmed to 37°C for 30 min. The surfaces were then washed and the number of cells adherent were counted by phase contrast microscopy.

Structure (SMILES)	binding of PMN to fibrinogen
CC(=O)NCCCC[C@H](NC(=O)[C@H](C)NC(=O)CNC(=O)CNC(=O)[C@@H](N)CC(C)C)C(=O)N[C@@H](CCC(N)=O)C(=O)N[C@@H](C)C(=O)NCC(=O)N[C@@H](CC(=O)O)C(=O)N[C@H](C(=O)O)C(C)C [AcL10] (H-LGGAK(Ac)QAGDV-OH)	loss of the inhibitory capacity
N=C(N)NCCC[C@H](NC(=O)CN)C(=O)NCC(=O)N[C@@H](CCC(=O)O)C(=O)N[C@@H](CO)C(=O)N1CCC[C@H]1C(=O)O [Gly-Arg-Gly-Glu-Ser-Pro] (H-GRGESP-OH)	does not inhibit binding
